Measurements reported in article PMC9911748.
No constants are given. Whether binding was seen depends on the method and setting. Binding seen in cells or lysates may run through a third protein. Some results given as binding are weak or reduced against the parent protein; the word gives no strength.

The chains behind the UniProt entries cited, without tags or fusion partners. Where a name states a change or a piece, a line headed by the entry shows the natural chain unless it says otherwise.
UniProt P08047: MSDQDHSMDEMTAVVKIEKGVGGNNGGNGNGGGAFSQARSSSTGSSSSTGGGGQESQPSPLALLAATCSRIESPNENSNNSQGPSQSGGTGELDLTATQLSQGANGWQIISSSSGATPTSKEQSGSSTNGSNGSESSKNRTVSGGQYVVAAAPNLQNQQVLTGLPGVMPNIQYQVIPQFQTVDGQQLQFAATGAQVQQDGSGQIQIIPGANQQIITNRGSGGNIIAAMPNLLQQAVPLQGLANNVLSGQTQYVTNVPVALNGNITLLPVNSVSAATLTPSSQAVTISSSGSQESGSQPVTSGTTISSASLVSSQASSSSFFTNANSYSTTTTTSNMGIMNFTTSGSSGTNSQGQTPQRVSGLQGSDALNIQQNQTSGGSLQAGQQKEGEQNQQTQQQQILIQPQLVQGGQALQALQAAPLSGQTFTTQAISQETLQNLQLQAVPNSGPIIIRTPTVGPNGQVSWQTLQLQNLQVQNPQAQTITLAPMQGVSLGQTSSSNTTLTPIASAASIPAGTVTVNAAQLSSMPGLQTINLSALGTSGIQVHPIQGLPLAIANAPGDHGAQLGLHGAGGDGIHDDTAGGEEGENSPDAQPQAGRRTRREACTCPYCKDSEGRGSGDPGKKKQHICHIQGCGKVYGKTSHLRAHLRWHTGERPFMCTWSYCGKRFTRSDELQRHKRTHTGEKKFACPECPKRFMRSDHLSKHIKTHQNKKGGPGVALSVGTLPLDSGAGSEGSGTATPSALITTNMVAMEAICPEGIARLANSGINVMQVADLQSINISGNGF
UniProt Q02447: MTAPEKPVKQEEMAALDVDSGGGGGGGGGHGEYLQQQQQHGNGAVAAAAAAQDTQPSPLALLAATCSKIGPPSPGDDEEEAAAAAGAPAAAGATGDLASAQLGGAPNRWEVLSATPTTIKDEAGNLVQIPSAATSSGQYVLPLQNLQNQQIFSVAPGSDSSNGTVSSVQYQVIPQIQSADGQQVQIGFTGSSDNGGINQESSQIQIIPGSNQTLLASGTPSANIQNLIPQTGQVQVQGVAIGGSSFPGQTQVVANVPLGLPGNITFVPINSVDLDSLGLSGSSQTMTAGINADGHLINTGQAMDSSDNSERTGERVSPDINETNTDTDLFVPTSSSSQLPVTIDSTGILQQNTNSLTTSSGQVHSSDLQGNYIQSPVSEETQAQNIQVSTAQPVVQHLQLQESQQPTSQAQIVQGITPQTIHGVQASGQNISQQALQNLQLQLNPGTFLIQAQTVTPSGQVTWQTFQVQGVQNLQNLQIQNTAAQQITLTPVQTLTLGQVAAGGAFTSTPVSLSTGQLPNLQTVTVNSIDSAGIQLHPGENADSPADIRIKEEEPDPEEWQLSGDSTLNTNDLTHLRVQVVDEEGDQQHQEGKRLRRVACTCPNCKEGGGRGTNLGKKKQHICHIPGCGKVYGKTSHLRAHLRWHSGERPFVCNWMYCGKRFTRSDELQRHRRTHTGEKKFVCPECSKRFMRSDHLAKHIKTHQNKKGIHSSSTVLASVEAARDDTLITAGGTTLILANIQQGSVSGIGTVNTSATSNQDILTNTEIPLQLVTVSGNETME
UniProt Q93009: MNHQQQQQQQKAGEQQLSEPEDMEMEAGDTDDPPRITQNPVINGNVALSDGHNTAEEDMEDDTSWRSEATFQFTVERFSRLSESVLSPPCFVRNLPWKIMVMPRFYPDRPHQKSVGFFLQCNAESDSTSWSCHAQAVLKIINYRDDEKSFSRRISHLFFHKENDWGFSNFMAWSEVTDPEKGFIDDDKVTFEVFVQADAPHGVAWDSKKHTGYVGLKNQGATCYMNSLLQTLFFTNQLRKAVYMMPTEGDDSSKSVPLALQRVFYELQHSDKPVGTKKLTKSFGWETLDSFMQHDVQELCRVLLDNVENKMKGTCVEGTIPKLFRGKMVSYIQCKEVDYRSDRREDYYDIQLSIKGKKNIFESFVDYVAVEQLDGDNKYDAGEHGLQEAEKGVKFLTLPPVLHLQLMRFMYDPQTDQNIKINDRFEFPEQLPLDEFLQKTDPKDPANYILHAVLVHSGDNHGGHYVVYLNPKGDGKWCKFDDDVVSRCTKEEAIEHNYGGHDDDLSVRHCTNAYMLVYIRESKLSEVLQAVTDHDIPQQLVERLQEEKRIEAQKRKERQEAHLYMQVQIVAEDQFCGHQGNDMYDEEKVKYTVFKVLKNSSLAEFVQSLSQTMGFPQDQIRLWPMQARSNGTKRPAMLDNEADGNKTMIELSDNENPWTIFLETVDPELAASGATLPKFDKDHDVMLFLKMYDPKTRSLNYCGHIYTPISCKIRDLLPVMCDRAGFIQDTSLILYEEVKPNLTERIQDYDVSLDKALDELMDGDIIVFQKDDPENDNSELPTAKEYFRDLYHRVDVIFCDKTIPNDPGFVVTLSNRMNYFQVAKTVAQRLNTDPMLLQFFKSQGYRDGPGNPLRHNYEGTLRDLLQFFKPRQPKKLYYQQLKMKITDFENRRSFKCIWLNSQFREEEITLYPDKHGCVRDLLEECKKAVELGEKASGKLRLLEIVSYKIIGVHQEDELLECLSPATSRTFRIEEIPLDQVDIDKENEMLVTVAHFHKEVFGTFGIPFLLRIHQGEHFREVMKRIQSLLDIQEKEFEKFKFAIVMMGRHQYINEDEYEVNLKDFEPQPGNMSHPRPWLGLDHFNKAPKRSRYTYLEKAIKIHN

Experiments:
[1] = target: Sp1 (human (endogenous in HUVECs)) (UniProt P08047); assay: co-IP; HUVECs treated with ACEI; anti-Sp1 or anti-Sp3 immunoprecipitation, western blot for USP7; IP lysis buffer, protein A/G magnetic beads
[2] = target: Sp3 (human (endogenous in HUVECs)) (UniProt Q02447); assay: as above
Flag-Sp1-K703A = Flag-Sp1-K703A (UniProt P08047); assay: co-IP; HUVECs ectopically expressing Flag-Sp1-WT, Flag-Sp1-K703A, Flag-Sp3-WT or Flag-Sp3-K551R, with or without ACEI; anti-Flag immunoprecipitation, western blot for USP7
Flag-Sp3-K551R = Flag-Sp3-K551R (UniProt Q02447); assay: as above
[3] = target: Sp1 (human (endogenous in HUVECs)) (UniProt P08047); assay: co-IP; nuclear subcellular fractions of HUVECs treated with ACEI for up to 90 min, CTR siRNA or HDAC1 siRNA; anti-Sp1 or anti-Sp3 immunoprecipitation, western blot for USP7
[4] = target: Sp3 (human (endogenous in HUVECs)) (UniProt Q02447); assay: as above
Flag-Sp1 = Flag-Sp1 (UniProt P08047); assay: co-IP; HEK293T cells co-transfected with Flag-Sp1 or Flag-Sp3 and Myc-USP7 deletion mutants; IP lysis buffer, protein A/G magnetic beads, western blot
Flag-Sp3 = Flag-Sp3 (UniProt Q02447); assay: as above

Measured: binding

USP7 (from UniProt Q93009 1-1102) (enzyme)
not listed: Flag-Sp1 | Flag-Sp3
binds: all other assays above

Myc-USP7 (from UniProt Q93009 1-1102) (enzyme)
binds: Flag-Sp1 | Flag-Sp3
